These results are taken from PubChem BioAssay AID200 (DTP/NCI, 2004).

The list is a part of this screen's results and no random one: it is rich in T/C values a quarter to a half above the control, in often repeated tests (any T/C) and in doses without a T/C. Further doses and runs are listed elsewhere. T/C gives the treated animals as a percentage of the vehicle group. Some entries give survivors of the animals treated and no T/C: the source files T/C as zero there, which appears to mark a toxic dose or a test without result, not a measured value. Some survivor counts are full or nearly so, which does not show that the dose was tolerated: survival well below the control is almost never listed, so the zero probably covers shortened survival too. Counts of survivors are from the toxicity check (mostly the fifth day) where no day follows; animals may have died later. Schedule codes are those of the source, read here as Q, the interval in days (D) or hours (H), X, the number of doses. For survival time, this PubChem deposit counts one and a half times the control or more as active, and values a quarter to a half above the control carry no call in these data; other NCI protocols may use other cut-offs. Some T/C values are followed by the survivors on the day toxicity was checked, most often the fifth; where none is given, no animal had died by that day.

This assay concerns B6C3F1 mice, B16 melanoma ip, median survival T/C. As to the kind of experiment: NCI In Vivo Anticancer Drug Screen. Data for tumor model B16 Melanoma (intraperitoneal) in B6C3F1 mice. To be noted: T/C endpoint: median survival time, schedule: Q01DX009 (ip), higher T/C = longer survival. The procedure, abridged: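 Antitumor effect was judged in mice with transplanted tumors by dividing the treated group's survival measure by that of vehicle controls.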

Where [1] appears, read: dose: 6.25 mg/kg/injection, vehicle: saline with Tween-80.
[2] abbreviates: dose: 12.5 mg/kg/injection, vehicle: saline with Tween-80.
Setting [3] is: dose: 25.0 mg/kg/injection, vehicle: saline with Tween-80.
Where [4] appears, read: dose: 50.0 mg/kg/injection, vehicle: saline with Tween-80.
[5] abbreviates: dose: 100.0 mg/kg/injection, vehicle: saline with Tween-80.
The mark [6] stands for this setting: dose: 200.0 mg/kg/injection, vehicle: saline with Tween-80.
Setting [7] is: dose: 200.0 mg/kg/injection, vehicle: saline.

Turning to `O=C1c2cccc3cc([N+](=O)[O-])cc(c23)C(=O)N1CCN1CCCC1`, the T/C is, setting by setting: (dose: 3.12 mg/kg/injection, vehicle: saline with Tween-80) 132 % of control; (dose: 3.13 mg/kg/injection, vehicle: saline with Tween-80) 143 % of control; under setting [1], 141 % of control; under setting [2], 136 % of control [9 of 10 alive]. In addition, the survivor count by setting is: under setting [2], 9 of 10; under setting [3], 7 of 10; under setting [4], 4 of 10.

As to `CC[C@@H](C)[C@H]([C@H](CC(=O)N1CCC[C@@H]1[C@@H](OC)[C@H](C)C(=O)N[C@H](Cc1ccccc1)c1nccs1)OC)N(C)C(=O)[C@H](NC(=O)[C@@H](C(C)C)N(C)C)C(C)C`, the T/C (dose: 1.44 micrograms/kg/injection, vehicle: saline + alcohol) is 142 % of control.

As for `CC(C)(C)OC(=O)NC(Cc1c[nH]c2ccccc12)C(=O)O` (stereo not given), the survivor count (dose: 400.0 mg/kg/injection, vehicle: distilled water + alcohol) is given as 10 of 10.

On to `CC(C)(C)OC(=O)NC(Cc1c[nH]c2ccccc12)C(=O)ON1C(=O)CCC1=O` (stereo not given), for which the survivor count under setting [4] is on record as 10 of 10, the survivor count under setting [5] is 10 of 10 and the survivor count under setting [6] is listed as 10 of 10.

For `O=C1SC(c2ccccc2)=S=C1c1ccccc1`, the survivor count runs as follows: (dose: 400.0 mg/kg/injection, vehicle: Klucel (hydroxypropylcellulose) (HPC)) 2 of 10; (dose: 800.0 mg/kg/injection, vehicle: Klucel (hydroxypropylcellulose) (HPC)) 2 of 10.

As to `CC(=O)OC1=C(Br)CCc2ccccc21`, the survivor count is, setting by setting: (dose: 50.0 mg/kg/injection, vehicle: DMSO) 5 of 7; (dose: 100.0 mg/kg/injection, vehicle: DMSO) 0 of 7; (dose: 200.0 mg/kg/injection, vehicle: DMSO) 1 of 7.

`NC1=NC(=O)N2CC12` (stereo not given): the survivor count by setting is: under setting [7], 9 of 10; (dose: 400.0 mg/kg/injection, vehicle: saline) 0 of 10.

As to `CC1(C)COCN1COCCOCN1COCC1(C)C`, the survivor count under setting [7] is on record as 7 of 10.

Turning to `CC(=O)O[C@H]1C(=O)[C@@]2(C)C(C(OC(=O)c3ccccc3)[C@]3(O)CC(OC(=O)[C@H](OC(=O)CCC(=O)O)C(NC(=O)c4ccccc4)c4ccccc4)C(C)=C1C3(C)C)C1(OC(C)=O)COC1C[C@@H]2OC(=O)CCC(=O)O` (stereo not given in full), the T/C (dose: 11.0 mg/kg/injection, vehicle: water) was 149 % of control.

With `NS(=O)(=O)OCCCCCCCOS(N)(=O)=O`, the T/C under setting [3] is 138 % of control. Besides, the survivor count was 10 of 10 under setting [5] and 10 of 10 under setting [6].

Take `CCC(=O)[O-].CCC(=O)[O-].CCC(=O)[O-].CCC(=O)[O-].O=S(=O)(O)O.[Re].[Re]`: the survivor count (dose: 180.0 mg/kg/injection, vehicle: suspension in saline) is on record as 10 of 10.

On to `CCCCc1ccc2nc(NC(=O)OC)[nH]c2c1`, for which the T/C is, setting by setting: under setting [1], 133 % of control; under setting [2], 146 % of control. In addition, under setting [6], the survivor count is 9 of 10.

Regarding `C[Si](C)(CCl)N[Si](C)(C)CCl`, the survivor count by setting is: under setting [6], 10 of 10; (dose: 400.0 mg/kg/injection, vehicle: saline with Tween-80) 10 of 10.

In the case of `Nc1nc(=S)c2ncn(C3OC(CO)CC3O)c2[nH]1` (stereo not given), the T/C (dose: 20.0 mg/kg/injection, vehicle: saline) is 126 % of control.

For the compound `CC1C(c2ccccc2)OC(N2CCOCC2)C(C)(C)CN1C` (stereo not given), the survivor count (dose: 800.0 mg/kg/injection, vehicle: saline with Tween-80) is listed as 1 of 10.

For `Cc1c(O)ccc(=O)n1O`, the survivor count runs as follows: (dose: 256.0 mg/kg/injection, vehicle: saline with Tween-80) 9 of 10; (dose: 512.0 mg/kg/injection, vehicle: saline with Tween-80) 6 of 10.

For `CC1C(=O)c2cc3c(cc2CCN(C)Cc2c1ccc1c2OCO1)OCO3` (stereo not given), the survivor count (dose: 40.0 mg/kg/injection, vehicle: saline with Tween-80) is 1 of 10.
